“And” between values parts separate entries of the source, which are not always exact repeats. Equal values may be shown once. At least one structure is not confirmed: it was looked up by name or label, or the drawing left a doubt.
Assays:
Assay type in all cases: physicochemical
[1] = Measurement of content ratio of compound represented by Formula (III) contained in crystal (Test Example 1); conditions: crystal as produced
Protocol: The content ratio of the compound represented by Formula (III) in the dihydrate crystal of the compound represented by Formula (I) produced in Example L was determined by the following method.
In Examples 1 to 4 and 6 and Reference Examples 1 to 2, the content ratio was determined in the same manner. […]
(§1) An amount of the compound represented by Formula (III) was measured with a liquid chromatograph according to the following method and conditions. • Measuring instrument: UHPLC (NexeraX2, SHIMADZU) • Detector: UV • Measurement wavelength: 271 nm • Column: ACQUITY UPLC BEH SHIELD PR18, 1.7 μm (2.1×100 mm) • Column temperature: constant temperature at near 40° C. • Mobile phase A: 20 mmol/L potassium dihydrogen phosphate aqueous solution • Mobile phase B: acetonitrile for liquid chromatography • Feed of mobile phase: The mixing ratio of mobile phase A and mobile phase B was changed as shown in Table 1 to control concentration gradient. […]

[2] = Stability testing of crystal (Test Example 4); conditions: for Content ratio of compound represented by Formula (III), 3M: 3 months; for Content ratio of compound represented by Formula (III), 12M: 12 months
Protocol: A standard sample of the compound represented by Formula (III) was prepared by the following method, • Step 1: About […] of the compound represented by Formula (III) was weighed precisely, and dissolved in a mixed solution of N,N-dimethylformamide and water (9:1) to make exactly 20 mL, • Step 2: One milliliter of the solution of Step 1 was accurately taken, and a mixed solution of N,N-dimethylformamide and water (9:1) was added to make exactly 50 mL. • Step 3: Two milliliters of the solution of Step 2 was accurately taken, and a mixed solution of N,N-dimethylformamide and water (9:1) was added to make exactly 20 mL, thereby obtaining a standard solution. (Preparation of Sample Solution)
About 125 to 600 mg of a sample was weighed precisely, and dissolved by adding a mixed solution of N,N-dimethylformamide and water (9:1) to make exactly 5 mL.
An amount of the compound represented by Formula (III) was measured with a liquid chromatograph according to the following method and conditions. • Measuring instrument: UHPLC (NexeraX2, SHIMADZU) • Detector: UV • Measurement wavelength: 271 nm • Column: ACQUITY UPLC BEH SHIELD PR18, 1.7 μm (2.1×100 mm) • Column temperature: constant temperature at near 40° C. • Mobile phase A: 20 mmol/L potassium dihydrogen phosphate aqueous solution • Mobile phase B: acetonitrile for liquid chromatography • Feed of mobile phase: The mixing ratio of mobile phase A and mobile phase B was changed as shown in Table 1 to control concentration gradient.
• Flow rate: 0.3 mL/min • Injection amount 2 μL • Sample cooler temperature: 5° C. • Area measurement range: 11 minutes after injection • Needle washing solution: mixed solution of N,N-dimethylformamide and water (9:1) (Calculation Formula) Content (ppm) of compound represented by Formula(III)=MS/MT×AT/AS×1/2000×1000000 (Mathematical formula 4) • MS: Weighing amount (mg) of compound represented by Formula (III) • MT: Weighing amount (mg) of sample • AS: Peak area of compound represented by Formula (III) obtained from standard solution • AT: Peak area of compound represented by Formula (III) obtained from sample solution • 1/2000: Dilution ratio
The samples obtained in Example 1 and Reference Example 1 were subjected to a stability testing to evaluate the content of the compound represented by Formula (III).
The storage conditions and the packaging form of Example 1 are shown in Table 3, and the storage conditions and the packaging form of Reference Example 1 are shown in Table 4.
Samples were placed in a polyethylene bag (Suntec-LD M2206 (additive free) 100×210×0.1 mm, TOWA KAKO CO., LTD.) and tightened with Convex (CV100N, SHIBAKEISOZAI CO., LTD.). This bag was further placed in a polyethylene (Suntec-LD M2206 (additive free) 100×210×0.1 mm, TOWA KAKO CO., LTD.) bag and similarly tightened with Convex (CV100N, SHIBAKEISOZAI CO., LTD.). The above samples under the same storage conditions were put together in a metal can (3dia, a stainless steel can with an inner diameter of 16 cm and a depth of 18 cm). • Double polyethylene bag, Convex (containing desiccant), metal can:
Samples were placed in a polyethylene bag (Suntec-LD M2206 (additive free) 100×210×0.1 mm, TOWA KAKO CO., LTD.) and tightened with Convex (CV100N, SHIBAKEISOZAI CO., LTD.). This bag was further placed in a polyethylene bag (Suntec-LD M2206 (additive free) 100×210×0.1 mm, TOWA KAKO) CO., LTD.) and similarly tightened with Convex (CV100N, SHIBAKEISOZAI CO., LTD.). The samples under the same storage conditions were put together in a metal can (3dia, a stainless steel can with an inner diameter of 16 cm and a depth of 18 cm) containing silica gel (using raw materials manufactured by Fuji Silysia Chemical Ltd., contained in 1 g bag).
The content of the compound represented by Formula (III) was confirmed in the same manner as in Test Example 1.

[3] = Measurement of content ratio of compound represented by Formula (III) contained in solution; increase during crystallization operation (Test Example 3)
Protocol: The content ratio of the compound represented by Formula (JII) in the solution in the production method of Example 1 was determined by the following method.
In Example 4 and Reference Examples 2 to 3, the content ratio was determined in the same manner. […]
as §1, with “SHIELD PF18,” for “SHIELD PR18,”, “Table 2” for “Table 1”

[4] = 40±2° C./75±5% RH, 8 months as printed in text

## C[C@@H](Cn1c(=O)[nH]/c(=N\c2ccc(Oc3ccccn3)cc2)n(Cc2ccc(Cl)cc2)c1=O)C(=O)O [Example 1]
[1]
  Content ratio of compound represented by Formula (III) in the obtained crystal: 1.10 ppm and 1.3 ppm
[2]; 5 ± 3° C.
  Content ratio of compound represented by Formula (III), 3M: 1 ppm
  Content ratio of compound represented by Formula (III), 12M: 1 ppm
[2]; 5 ± 3° C., 6 months
  Content ratio of compound represented by Formula (III), 6M: 1 ppm
[2]; 25 ± 2° C./60 ± 5% RH
  Content ratio of compound represented by Formula (III), 3M: 1 ppm
  Content ratio of compound represented by Formula (III), 12M: 2 ppm
[2]; 25 ± 2° C./60 ± 5% RH, 6 months
  Content ratio of compound represented by Formula (III), 6M: 1 ppm
[2]; 40±2° C./75±5% RH, 1 month
  Increased amount of compound represented by Formula (III) from the start of the test: 1 ppm
[2]; 40 ± 2° C./75 ± 5% RH
  Content ratio of compound represented by Formula (III), 3M: 3 ppm
[2]; 40±2° C./75±5% RH, 6 months
  Content ratio of compound represented by Formula (III), 6M: 4 ppm
  Increased amount of compound represented by Formula (III) from the start of the test: 2 ppm
[2]; [4]
  Content ratio of compound represented by Formula (III), in 8 months: 3 ppm
  Increased amount of compound represented by Formula (III) from the start of the test: 2 ppm
[2]; 40 ± 2° C./75 ± 5% RH, protect from light, double polyethylene bag with desiccant, metal can, 1 month
  Content ratio of compound represented by Formula (III), 1M: 2 ppm
[2]; start of test
  Content ratio of compound represented by Formula (III), Initial: 1 ppm
[3]; after crystallization
  Total amount of the content ratio of compound represented by Formula (III) contained in the filtrate after filtration and the obtained crystal: 119.6 ppm and 67.1 ppm
[3]; reaction solution / dissolved anhydrate crystal
  Content ratio of compound represented by Formula (III) in the solution before crystallization: 54.3 ppm and 58.4 ppm

Source: patent publication US12570627B2, “Pharmaceutical composition in which production of impurities is suppressed” (Shionogi & Co., Ltd., priority 2020, dated 2026)
